Results deposited as PubChem BioAssay AID1508588 (Peter MacCallum Cancer Centre, 2020)

Aim: 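Which gene losses make BRAF-mutant melanoma cells more responsive to vemurafenib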 (primary screen)
Cells: human WM266.4 melanoma cells (BRAF V600 mutant)
Reagents: siRNA pool against human genes, 40 nM
Duration: 96 h from transfection to read-out
Treatment: vemurafenib 300 nM (about IC25), added 48 h after transfection, for 48 h; comparison arm got DMSO vehicle only
Read-out: 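Ratios to non-targeting siRNA for cell gain, counted as DAPI nuclei after minus before drug and averaged over two replicates, and for absorbance-read medium lactate per cell; both binned into fold-change classes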
Direction: cell gain with vemurafenib: higher = more cell gain than with non-targeting siRNA; lactate per cell with vemurafenib: higher = more lactate made per cell
Active means: 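a knock-down counts as enhancing when its fold-change classes with vehicle and with vemurafenib, taken together, show a stronger drug effect on cell gain or lactate per cell; exact class pairs not stated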
Calls: active = enhances vemurafenib effect; inactive = no enhancement seen
Shown is a random part of about 18,000 deposited reagents. Over the whole deposit, 790 (4.4%) were called active. 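Calls rest on a combination of fold-change classes in drug and vehicle arms, not all shown here.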 A number with no mark means an inactive call. Reagents against one gene are numbered here.

Gene	reagent	cell gain with vemurafenib	lactate per cell with vemurafenib
M1AP (meiosis 1 associated protein)	1	0.37	1.7
KIF5B (kinesin family member 5B)	1	0.74	0.76
PLEKHG4 (pleckstrin homology and RhoGEF domain containing G4)	1	0.26	1.03
DGCR8 (DGCR8 microprocessor complex subunit)	1	0.67	1.03
PDE3A (phosphodiesterase 3A)	1	0.7	0.86
YPEL2 (yippee like 2)	1	0.78	0.84
GDF9 (growth differentiation factor 9)	1	0.2	1.1
PLB1 (phospholipase B1)	1	0.09	0.74
KCNC1 (potassium voltage-gated channel subfamily C member 1)	1	0.88	0.6
EIF5 (eukaryotic translation initiation factor 5)	1	0.48	1.43
ARPP19 (cAMP regulated phosphoprotein 19)	1	0.71	1.15
NDUFA1 (NADH:ubiquinone oxidoreductase subunit A1)	1	0.57	1.75
RPL19P9 (ribosomal protein L19 pseudogene 9)	1	-0.04	1.4
ZNF826P (zinc finger protein 826, pseudogene)	1	0.25	1.35
OTOL1 (otolin 1)	1	0.41	0.52
VPS4A (vacuolar protein sorting 4 homolog A)	1	0.18 (active)	1.66
TBC1D21 (TBC1 domain family member 21)	1	0.49	0.92
KCNS1	1	0.84	0.98
CT45A3 (cancer/testis antigen family 45 member A3)	1	0.39	1.14
CT45A3 (cancer/testis antigen family 45 member A3)	2	0.41	1
PANK1 (pantothenate kinase 1)	1	0.72	1.08
NUBP2 (NUBP iron-sulfur cluster assembly factor 2, cytosolic)	1	0.54	1.31
ADAM18 (ADAM metallopeptidase domain 18)	1	0.26 (active)	0.38
PEDS1 (plasmanylethanolamine desaturase 1)	1	0.09	0.87
C11orf58 (chromosome 11 open reading frame 58)	1	0.96	0.93
HSPB7 (heat shock protein family B (small) member 7)	1	0.91	1.08
MAP1B (microtubule associated protein 1B)	1	0.71	0.49
OLFML2A (olfactomedin like 2A)	1	0.14	1.36
NOM1 (nucleolar protein with MIF4G domain 1)	1	0.47	1.57
CNOT1 (CCR4-NOT transcription complex subunit 1)	1	-0.02	2.52
PSMB6 (proteasome 20S subunit beta 6)	1	-0.1	2.54
CCDC92 (coiled-coil domain containing 92)	1	0.62	0.88
NLRC3 (NLR family CARD domain containing 3)	1	0.87	0.68
LARP1 (La ribonucleoprotein 1, translational regulator)	1	0.74	0.72
ARHGAP25 (Rho GTPase activating protein 25)	1	0.44	0.76
PLAC4 (placenta associated 4)	1	0.45	1.76
CKB (creatine kinase B)	1	0.75	1
DPM1 (dolichyl-phosphate mannosyltransferase subunit 1, catalytic)	1	1.26	0.5
GEMIN4 (gem nuclear organelle associated protein 4)	1	0.16	1.25
PKP4 (plakophilin 4)	1	0.6	0.7
KLHL24 (kelch like family member 24)	1	0.35	0.54
RNF141 (ring finger protein 141)	1	0.94	0.54
TRAF3 (TNF receptor associated factor 3)	1	0.84	1.33
PRPF8 (pre-mRNA processing factor 8)	1	0.01	2.69
OXLD1 (oxidoreductase like domain containing 1)	1	0.62	0.76
TSPO (translocator protein)	1	0.75	1.08
FNTB (farnesyltransferase, CAAX box, subunit beta)	1	0.51	0.62
RMP24 (ribonuclease MRP subunit p24)	1	0.61	1.04
LATS1 (large tumor suppressor kinase 1)	1	0.38	0.77
CTBS (chitobiase)	1	0.59	0.82
MLF1 (myeloid leukemia factor 1)	1	0.53	1.04
NDST4 (N-deacetylase and N-sulfotransferase 4)	1	0.72	0.7
PRDX3 (peroxiredoxin 3)	1	1.07	0.44
KRTAP4-7 (keratin associated protein 4-7)	1	0.52	1.04
APRG1 (APRG1 tumor suppressor candidate)	1	0.74	0.97
APOBEC3G (apolipoprotein B mRNA editing enzyme catalytic subunit 3G)	1	0.55	1.52
MYO1F (myosin IF)	1	0.31	1.4

6 entries from above, sorted by “lactate per cell with vemurafenib”, high to low.
Gene	reagent	cell gain with vemurafenib	lactate per cell with vemurafenib
PSMB6 (proteasome 20S subunit beta 6)	1	-0.1	2.54
CNOT1 (CCR4-NOT transcription complex subunit 1)	1	-0.02	2.52
NOM1 (nucleolar protein with MIF4G domain 1)	1	0.47	1.57
OLFML2A (olfactomedin like 2A)	1	0.14	1.36
CCDC92 (coiled-coil domain containing 92)	1	0.62	0.88
NLRC3 (NLR family CARD domain containing 3)	1	0.87	0.68
